This is an account of results in patent US20260007767A1 (ACADEMIA SINICA, published 2026).

Protein sequences, listed by entry. Tags and fused reporters are not part of them. Lines headed by an entry give the natural chain unless they say otherwise; changes in a name come on top. Residues count along the entry.
UniProt P49771: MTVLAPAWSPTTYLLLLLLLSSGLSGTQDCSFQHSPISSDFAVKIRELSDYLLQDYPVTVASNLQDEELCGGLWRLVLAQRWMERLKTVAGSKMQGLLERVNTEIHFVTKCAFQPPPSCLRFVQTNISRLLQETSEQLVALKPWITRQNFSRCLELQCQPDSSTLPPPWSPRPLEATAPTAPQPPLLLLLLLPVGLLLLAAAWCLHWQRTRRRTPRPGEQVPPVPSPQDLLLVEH
UniProt Q8IWY4, residues 24-988: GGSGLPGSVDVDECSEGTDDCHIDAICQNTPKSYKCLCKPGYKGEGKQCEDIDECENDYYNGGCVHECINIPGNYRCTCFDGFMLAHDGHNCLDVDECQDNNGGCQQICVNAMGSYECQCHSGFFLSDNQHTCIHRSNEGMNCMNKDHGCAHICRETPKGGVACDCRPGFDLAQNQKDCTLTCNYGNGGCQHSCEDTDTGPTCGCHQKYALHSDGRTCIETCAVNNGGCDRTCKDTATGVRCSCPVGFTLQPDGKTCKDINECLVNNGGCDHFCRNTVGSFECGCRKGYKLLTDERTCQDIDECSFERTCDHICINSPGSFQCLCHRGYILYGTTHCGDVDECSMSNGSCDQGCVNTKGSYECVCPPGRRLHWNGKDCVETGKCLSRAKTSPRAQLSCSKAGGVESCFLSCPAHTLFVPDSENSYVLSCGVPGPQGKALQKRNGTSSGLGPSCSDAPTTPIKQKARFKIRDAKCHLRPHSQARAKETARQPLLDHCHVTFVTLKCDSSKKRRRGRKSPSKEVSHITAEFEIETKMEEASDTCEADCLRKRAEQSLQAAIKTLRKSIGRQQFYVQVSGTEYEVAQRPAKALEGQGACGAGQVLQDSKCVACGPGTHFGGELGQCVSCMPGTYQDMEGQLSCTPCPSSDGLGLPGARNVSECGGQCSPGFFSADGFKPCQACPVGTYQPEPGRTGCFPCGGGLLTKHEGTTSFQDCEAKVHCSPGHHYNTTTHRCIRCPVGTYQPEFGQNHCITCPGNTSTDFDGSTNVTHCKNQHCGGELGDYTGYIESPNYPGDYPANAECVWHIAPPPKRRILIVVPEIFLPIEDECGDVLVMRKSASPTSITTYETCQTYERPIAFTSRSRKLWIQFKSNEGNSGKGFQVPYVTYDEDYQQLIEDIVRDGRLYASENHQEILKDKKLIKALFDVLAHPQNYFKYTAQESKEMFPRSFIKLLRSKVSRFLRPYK

Results are given in words; binding and its absence hold for the method and conditions named. Binding seen in cells or lysates may run through a third protein. Binding can be weak; no strength is given.

The assay has as its target His-tagged FLT3L (UniProt P49771). The assay is described as follows: co-immunoprecipitation with anti-FLAG antibody, HEK-293T cells.

Take “FLAG-tagged SCUBE1 (from UniProt Q8IWY4 24-988)”: the binding result is recorded as “binds”.
